# Source: the supplement of paper PMC12889115
# This is one part of the list. These are raw signals, not scaled to a control.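 Primary screen: polymyxin B was added at a level permeabilizing Salmonella outer membranes while sparing inner membranes. DMSO wells, both with and without polymyxin B, established maximum growth. Plate-to-plate variation meant each plate was ranked on its own, and the lowest-OD600 compounds were selected as hits.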
# System: Salmonella enterica serovar Typhimurium SL1344
# Assay: bacterial growth OD600 after 18 h with compound and polymyxin B; higher = more bacterial growth (less inhibition)
# Settings: 50 µM, Mueller-Hinton broth
structure (smiles),measurement,setting,value
COc1ccc(F)c(CN2CCCC3(CCN(C4CCSCC4)C3)C2=O)c1 (stereo unspecified),bacterial growth OD600,polymyxin B 1 µg/mL,0.829
Cc1oc(-c2cccc(F)c2F)nc1CN(C)Cc1ccccc1C(F)(F)F,bacterial growth OD600,polymyxin B 1 µg/mL,0.792
COCc1ccc(C(=O)N2CCCC(CCc3ccccc3)C2)o1 (stereo unspecified),bacterial growth OD600,polymyxin B 0.75 µg/mL,-0.002
CC(C)c1nc2cc(C(=O)N3CCSCC3)ccc2o1,bacterial growth OD600,polymyxin B 1 µg/mL,0.869
Cc1nc(-c2ccncc2)ncc1C(C)NC(=O)c1ccsc1 (stereo unspecified),bacterial growth OD600,polymyxin B 1 µg/mL,0.906
Cc1ccc(NC2CCCN(C(=O)CCC(=O)c3ccccc3)C2)cc1C (stereo unspecified),bacterial growth OD600,polymyxin B 1 µg/mL,0.716
O=C(Nc1ccc(-n2cccn2)cc1)C1CCCN1C(=O)CCc1cccs1 (stereo unspecified),bacterial growth OD600,polymyxin B 0.75 µg/mL,0.808
O=C(NC1Cc2ccccc2C1)c1coc(COc2cccc(F)c2)n1,bacterial growth OD600,polymyxin B 0.75 µg/mL,0.009
COc1cc(CN([C@H]2CCCCNC2=O)S(=O)(=O)c2cccc3cccnc23)cc(OC)c1OCCc1ccsc1,bacterial growth OD600,polymyxin B 0.75 µg/mL,0.598
Cc1cccc(C(=O)N2CCC3(CCCN(CC(C)(C)C)C3=O)C2)n1 (stereo unspecified),bacterial growth OD600,polymyxin B 1 µg/mL,0.139
CSc1ccccc1NC(=O)N1CCCC(CNC(=O)c2cc(C)on2)C1 (stereo unspecified),bacterial growth OD600,polymyxin B 0.75 µg/mL,0.958
COCC1CCCN(C(=O)c2coc(COc3ccccc3)n2)C1 (stereo unspecified),bacterial growth OD600,polymyxin B 1 µg/mL,0.983
CCOC(=O)C1(Cc2ccc(OC)cc2)CCN(C(=O)c2cc(C)cc(C)c2)CC1,bacterial growth OD600,polymyxin B 0.75 µg/mL,0.005
CCC(COC)NC(=O)c1cc(OC)ccc1OC1CCN(C(=O)C2CC2)CC1 (stereo unspecified),bacterial growth OD600,polymyxin B 1 µg/mL,0.851
Cc1nc(-c2ccncc2)ncc1C(C)NC(=O)c1ccc(Cl)s1 (stereo unspecified),bacterial growth OD600,polymyxin B 1 µg/mL,1
CC(NC(=O)c1ccc(OC2CCN(C(=O)C3CC3)CC2)cc1)c1cccs1 (stereo unspecified),bacterial growth OD600,polymyxin B 1 µg/mL,1.03
COc1ccccc1C(=O)Nc1ccnn1C1CCN(C(=O)Cn2ccc(C)n2)CC1,bacterial growth OD600,polymyxin B 1 µg/mL,1.01
COCC(=O)Nc1cc(C(=O)NC2CCN(Cc3ccccc3)C2)c2c(c1)nc(C1CCC1)n2C (stereo unspecified),bacterial growth OD600,polymyxin B 0.75 µg/mL,0.787
Cc1ccc(CN(C)C(=O)c2cc(Cn3ccc4ccccc43)[nH]n2)o1,bacterial growth OD600,polymyxin B 0.75 µg/mL,0.508
COc1ccc(Cl)cc1NC(=O)CCC1CCCN(C(=O)CCCn2cncn2)C1 (stereo unspecified),bacterial growth OD600,polymyxin B 1 µg/mL,0.803
CCCc1cc(CNC(=O)c2ccc(N3CCN(C(C)C)C(CC)C3)nc2)on1 (stereo unspecified),bacterial growth OD600,polymyxin B 1 µg/mL,0.892

# Two compounds drawn at random from those above:
structure (smiles),measurement,setting,value
Cc1ccc(NC2CCCN(C(=O)CCC(=O)c3ccccc3)C2)cc1C (stereo unspecified),bacterial growth OD600,polymyxin B 1 µg/mL,0.716
O=C(Nc1ccc(-n2cccn2)cc1)C1CCCN1C(=O)CCc1cccs1 (stereo unspecified),bacterial growth OD600,polymyxin B 0.75 µg/mL,0.808
